Taken from: PubChem BioAssay AID1259424 (University of Nebraska Medical Center, 2018)

- Test: 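Rank knockdowns across the genome by resemblance to the KSR1 depletion profile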 (primary screen)
- Cells: human HCT116 colon cancer cells
- Knock-down reagent: siRNA pool against human genes, 50 nM
- Measured: 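Log2 levels of six mRNAs (branched-DNA multiplex), adjusted by two reference genes and the non-targeting median, then scored against the average KSR1 knockdown pattern as Pearson r and euclidean distance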
- Direction: mean correlation with KSR1 profile: higher = expression change more like KSR1 knockdown; mean distance from KSR1 profile: higher = expression change less like KSR1 knockdown
Shown is one part, drawn at random, of about 14,000 reagents tested. 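Higher correlation or smaller distance means closer resemblance to KSR1 loss; control wells, including KSR1 knockdowns, recur on many plates.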 Further read-outs or replicates are left out here. Not given: the time to read-out.

For RRAS [SID363997092] the deposit lists mean correlation with KSR1 profile 0.477; mean distance from KSR1 profile 1.02.
After knock-down of DNAJC7 [SID363994431], the screen gave mean correlation with KSR1 profile 0.265; mean distance from KSR1 profile 0.817.
For REXO1 [SID364001783], the values are mean correlation with KSR1 profile -0.341; mean distance from KSR1 profile 1.89.
For PRXL2A [SID364003919] the deposit lists mean correlation with KSR1 profile 0.228; mean distance from KSR1 profile 2.38.
Depletion of SLC6A7 [SID363998667] gave: mean correlation with KSR1 profile 0.0537; mean distance from KSR1 profile 2.29.
For FRG1 [SID363995458], the values are mean correlation with KSR1 profile -0.183; mean distance from KSR1 profile 1.96.
MCM4 [SID363996783] showed mean correlation with KSR1 profile 0.238; mean distance from KSR1 profile 1.58.
Depletion of FBXW4 [SID364002280] gave: mean correlation with KSR1 profile -0.0845; mean distance from KSR1 profile 2.43.
Silencing of OR10A5 [SID364004907] gave: mean correlation with KSR1 profile 0.436; mean distance from KSR1 profile 1.94.
Against GOLGA6B [SID364001151], the entry reads mean correlation with KSR1 profile -0.498; mean distance from KSR1 profile 1.63.
After knock-down of DNAJC8 [SID363998713], the record shows mean correlation with KSR1 profile -0.335; mean distance from KSR1 profile 2.95.
Knock-down of ABCD2 [SID363996091] gave: mean correlation with KSR1 profile 0.324; mean distance from KSR1 profile 1.74.
TCERG1 [SID363997486] gave mean correlation with KSR1 profile 0.645; mean distance from KSR1 profile 1.51.
With knock-down of ERP29 [SID363997583] the results were mean correlation with KSR1 profile -0.79; mean distance from KSR1 profile 3.92.
PPP1R16B [SID363999577] showed mean correlation with KSR1 profile 0.906; mean distance from KSR1 profile 1.83.
With knock-down of TMEM222 [SID364003782], the screen gave mean correlation with KSR1 profile 0.892; mean distance from KSR1 profile 1.66.
For SLC9A1 [SID363994196], the entry reads mean correlation with KSR1 profile 0.0782; mean distance from KSR1 profile 1.44.
Against NRAS [SID363993696], the entry reads mean correlation with KSR1 profile 0.613; mean distance from KSR1 profile 1.05.
Depletion of MAP4K1 [SID363997881] resulted in: mean correlation with KSR1 profile 0.128; mean distance from KSR1 profile 4.05.
